# From patent US20120014885A1
# The chains behind the UniProt entries cited, without tags or fusion partners. Where a name states a change or a piece, a line headed by the entry shows the natural chain unless it says otherwise. A line that says so, or that is headed by a name, gives the form on record, which may keep a tag or linker.
# VegF (PeproTech), labeled with biotin (P15692, form named): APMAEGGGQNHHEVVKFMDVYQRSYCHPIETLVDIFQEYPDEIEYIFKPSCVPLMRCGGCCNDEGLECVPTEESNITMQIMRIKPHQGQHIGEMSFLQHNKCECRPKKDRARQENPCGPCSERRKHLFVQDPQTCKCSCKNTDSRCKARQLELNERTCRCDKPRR
# No constants are given. Whether binding was seen depends on the method and setting. Some entries that bind do so weakly or less than the wild type.
# What was measured:
# [1] = biological target: human VEGF165 (human) (UniProt P15692); test: phage ELISA on hVEGF165, anti-M13-HRP, ABTS, A405 after 30 minutes (n=3)
# [2] = biological target: human VEGF165 (human) (UniProt P15692); test: phage display panning of the PhD C7C library on hVEGF165, 3 rounds, clones sequenced
# [3] = biological target: human VEGF165 (human) (UniProt P15692); test: phage ELISA, equivalent amounts of phage on hVEGF165, anti-M13-HRP, ABTS, A405 after 30 min (n=3)
# [4] = biological target: VegF (PeproTech), labeled with biotin (UniProt P15692); test: ECL competition assay (BioVeris), competitor: labeled Anti-VegF antibody
# [5] = biological target: VegF (PeproTech), labeled with biotin (UniProt P15692); test: ECL competition assay (BioVeris): biotinylated VegF on streptavidin beads, competitor ECL labeled Anti-VegF antibody
# [6] = biological target: human VEGF165 (human) (UniProt P15692); test: SPR (BIAcore 3000), VEGF165 coupled to CM5; trypsin and chymotrypsin in the other lanes
# [7] = biological target: human VEGF165 (human) (UniProt P15692); test: BIAcore 3000, hVEGF165 coupled to a CM5 chip (295 RU printed on the sheet), refolded BBI-VEGF injected
# [8] = biological target: human VEGF165 (human) (UniProt P15692); test: BIAcore 3000, VEGF165 coupled to a CM5 chip, TNF-alpha reference lane (Resp. Diff.), peptide injected in twofold dilutions [A]
# [9] = biological target: VegF (PeproTech), labeled with biotin (UniProt P15692); test: ECL competition assay (BioVeris), competitor: labeled Anti-VegF antibody; 2BBIck81 series 12.5 to 500 ng/ml
binding [1],binding [2],binding [3],Binder,also measured
binds,binds,binds,TLWPSYW [SEQ ID NO 7],–
–,binds,–,APWNLHI [SEQ ID NO 10],–
–,binds,–,YNLYGWT [SEQ ID NO 8],–
–,binds,–,TLWPSYW [SEQ ID NO 11],–
binds,binds,binds,APWNLHI [SEQ ID NO 6],–
–,binds,–,APWNSHI [SEQ ID NO 9],–
–,binds,–,SLWPAFW [SEQ ID NO 12],–

# More lines, now with the values behind:
Binder,binding [1],binding [2],binding [3],also measured
YNLYGWT [SEQ ID NO 1],binds,binds,binds,–
TLWPTFW [SEQ ID NO 2],binds,binds,binds,–
ACYNLYGWTC [synthesized CK37281 peptide],–,–,–,binding [4]: binds; binding [5]: binds
APWNSHI [SEQ ID NO 5],binds,binds,binds,–
SLWPAFW [SEQ ID NO 4],binds,binds,binds,–
BBI-VEGF1 (designed binder) DDESSKPCCDQCACYNLYGWTCRCSDMRLNSCHSACKSCICALSYPAQCFCVDLTDFCEPCKPSEDDKEN,–,–,–,binding [6]: binds; binding [7]: binds
ACYNLYGWTC (biotinylated (site not stated)) [biotinylated peptide CK37281],–,–,–,binding [8]: binds
1BBIck81 (designed binder) DDESSKPCCDQCACYNLYGWTCRCSDMRLNSCHSACKSCICALSYPAQCFCVDITDFCYEPCKPSEDDKEN,–,–,–,binding [4]: binds
NLWPHFW [SEQ ID NO 3],binds,binds,binds,–
2BBIck81 (designed binder) DDESSKPCCDQCACTKSNPPQCRCSDMRLNSCHSACKSCACYNLYGWTCFCVDITDFCYEPCKPSEDDKEN,–,–,–,binding [4]: binds; binding [9]: binds; binding [5]: binds
